Assay results as given in article PMC5235353.
These are yes or no findings as the source states them, for the method shown. Binding seen in cells or lysates may run through a third protein. A result given as binding can be weak or reduced; the word gives no strength. For part of these data: Sequences can lack the tags named with a protein.

Legend:
[1] = target: GST-DIC (dynein intermediate chain fused to GST); assay: pull-down; ~1 μg GST-DIC on glutathione-Sepharose beads added to His-Snapin lysates, 3 hr at 4°C, with rising Aβ1-42 (from 0.2 μM), same amount of Snapin and DIC; immunoblot; only the target purified
[2] = target: GST-DIC (dynein intermediate chain fused to GST); assay: pull-down; ~1 μg GST-DIC on glutathione-Sepharose beads added to 2 mg light membrane fraction of mouse brain, with or without 2 μM oligomeric Aβ1-42, overnight at 4°C, washed with TBS; immunoblot; only the target purified
GFP-DIC = assay: co-IP; 600 μg COS7 cell lysates, cells expressing WT hAPP or mutant hAPP^swe; TBS with 0.1% Triton X-100, overnight at 4°C, Protein A-Sepharose; immunoblot

B1: His-Snapin (protein, UniProt O95295 1-136)
chain: MAGAGSAAVSGAGTPVAGPTGRDLFAEGLLEFLRPAVQQLDSHVHAVRESQVELREQIDNLATELCRINEDQKVALDLDPYVKKLLNARRRVVLVNNILQNAQERLRRLNHSVAKETARRRAMLDSGIYPPGSPGK
binding [1]: binds

B2: Snapin, endogenous, on late endosomes/amphisomes of mouse brain light membrane fraction (protein, UniProt Q9Z266 1-136)
chain: MAAAGSAAVSGAGTPVAGPTGRDLFAEGLLEFLRPAVQQLDSHVHAVRESQVELREQIDNLATELCRINEDQKVALDLDPYVKKLLNARRRVVLVNNILQNAQERLRRLNHSVAKETARRRAMLDSGVYPPGSPSK
binding [2]: binds

B3: Snapin (expressed in COS7 cells) (protein, UniProt O95295 1-136)
chain: MAGAGSAAVSGAGTPVAGPTGRDLFAEGLLEFLRPAVQQLDSHVHAVRESQVELREQIDNLATELCRINEDQKVALDLDPYVKKLLNARRRVVLVNNILQNAQERLRRLNHSVAKETARRRAMLDSGIYPPGSPGK
binding (GFP-DIC): binds
